# Experimental data from the supplement of paper PMC12067093, “Discovery and optimisation of a covalent ligand for TRIM25 and its application to targeted protein ubiquitination” (Chemical Science, 2025).
# By UniProt entry, the sequences of proteins in these tests, tags left out. Where a name states a change or a piece, a line headed by the entry shows the natural chain unless it says otherwise.
# UniProt O77932: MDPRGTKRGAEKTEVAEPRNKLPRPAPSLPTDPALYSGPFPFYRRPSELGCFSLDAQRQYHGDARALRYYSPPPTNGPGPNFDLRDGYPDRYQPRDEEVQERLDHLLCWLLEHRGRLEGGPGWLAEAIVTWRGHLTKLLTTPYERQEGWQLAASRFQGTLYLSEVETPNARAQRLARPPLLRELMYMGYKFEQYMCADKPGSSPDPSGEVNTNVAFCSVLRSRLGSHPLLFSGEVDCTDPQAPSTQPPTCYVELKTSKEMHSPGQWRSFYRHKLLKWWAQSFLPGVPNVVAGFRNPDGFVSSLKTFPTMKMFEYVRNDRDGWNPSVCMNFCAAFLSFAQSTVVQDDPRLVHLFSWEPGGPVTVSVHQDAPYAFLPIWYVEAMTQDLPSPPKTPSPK
# UniProt Q96BY6: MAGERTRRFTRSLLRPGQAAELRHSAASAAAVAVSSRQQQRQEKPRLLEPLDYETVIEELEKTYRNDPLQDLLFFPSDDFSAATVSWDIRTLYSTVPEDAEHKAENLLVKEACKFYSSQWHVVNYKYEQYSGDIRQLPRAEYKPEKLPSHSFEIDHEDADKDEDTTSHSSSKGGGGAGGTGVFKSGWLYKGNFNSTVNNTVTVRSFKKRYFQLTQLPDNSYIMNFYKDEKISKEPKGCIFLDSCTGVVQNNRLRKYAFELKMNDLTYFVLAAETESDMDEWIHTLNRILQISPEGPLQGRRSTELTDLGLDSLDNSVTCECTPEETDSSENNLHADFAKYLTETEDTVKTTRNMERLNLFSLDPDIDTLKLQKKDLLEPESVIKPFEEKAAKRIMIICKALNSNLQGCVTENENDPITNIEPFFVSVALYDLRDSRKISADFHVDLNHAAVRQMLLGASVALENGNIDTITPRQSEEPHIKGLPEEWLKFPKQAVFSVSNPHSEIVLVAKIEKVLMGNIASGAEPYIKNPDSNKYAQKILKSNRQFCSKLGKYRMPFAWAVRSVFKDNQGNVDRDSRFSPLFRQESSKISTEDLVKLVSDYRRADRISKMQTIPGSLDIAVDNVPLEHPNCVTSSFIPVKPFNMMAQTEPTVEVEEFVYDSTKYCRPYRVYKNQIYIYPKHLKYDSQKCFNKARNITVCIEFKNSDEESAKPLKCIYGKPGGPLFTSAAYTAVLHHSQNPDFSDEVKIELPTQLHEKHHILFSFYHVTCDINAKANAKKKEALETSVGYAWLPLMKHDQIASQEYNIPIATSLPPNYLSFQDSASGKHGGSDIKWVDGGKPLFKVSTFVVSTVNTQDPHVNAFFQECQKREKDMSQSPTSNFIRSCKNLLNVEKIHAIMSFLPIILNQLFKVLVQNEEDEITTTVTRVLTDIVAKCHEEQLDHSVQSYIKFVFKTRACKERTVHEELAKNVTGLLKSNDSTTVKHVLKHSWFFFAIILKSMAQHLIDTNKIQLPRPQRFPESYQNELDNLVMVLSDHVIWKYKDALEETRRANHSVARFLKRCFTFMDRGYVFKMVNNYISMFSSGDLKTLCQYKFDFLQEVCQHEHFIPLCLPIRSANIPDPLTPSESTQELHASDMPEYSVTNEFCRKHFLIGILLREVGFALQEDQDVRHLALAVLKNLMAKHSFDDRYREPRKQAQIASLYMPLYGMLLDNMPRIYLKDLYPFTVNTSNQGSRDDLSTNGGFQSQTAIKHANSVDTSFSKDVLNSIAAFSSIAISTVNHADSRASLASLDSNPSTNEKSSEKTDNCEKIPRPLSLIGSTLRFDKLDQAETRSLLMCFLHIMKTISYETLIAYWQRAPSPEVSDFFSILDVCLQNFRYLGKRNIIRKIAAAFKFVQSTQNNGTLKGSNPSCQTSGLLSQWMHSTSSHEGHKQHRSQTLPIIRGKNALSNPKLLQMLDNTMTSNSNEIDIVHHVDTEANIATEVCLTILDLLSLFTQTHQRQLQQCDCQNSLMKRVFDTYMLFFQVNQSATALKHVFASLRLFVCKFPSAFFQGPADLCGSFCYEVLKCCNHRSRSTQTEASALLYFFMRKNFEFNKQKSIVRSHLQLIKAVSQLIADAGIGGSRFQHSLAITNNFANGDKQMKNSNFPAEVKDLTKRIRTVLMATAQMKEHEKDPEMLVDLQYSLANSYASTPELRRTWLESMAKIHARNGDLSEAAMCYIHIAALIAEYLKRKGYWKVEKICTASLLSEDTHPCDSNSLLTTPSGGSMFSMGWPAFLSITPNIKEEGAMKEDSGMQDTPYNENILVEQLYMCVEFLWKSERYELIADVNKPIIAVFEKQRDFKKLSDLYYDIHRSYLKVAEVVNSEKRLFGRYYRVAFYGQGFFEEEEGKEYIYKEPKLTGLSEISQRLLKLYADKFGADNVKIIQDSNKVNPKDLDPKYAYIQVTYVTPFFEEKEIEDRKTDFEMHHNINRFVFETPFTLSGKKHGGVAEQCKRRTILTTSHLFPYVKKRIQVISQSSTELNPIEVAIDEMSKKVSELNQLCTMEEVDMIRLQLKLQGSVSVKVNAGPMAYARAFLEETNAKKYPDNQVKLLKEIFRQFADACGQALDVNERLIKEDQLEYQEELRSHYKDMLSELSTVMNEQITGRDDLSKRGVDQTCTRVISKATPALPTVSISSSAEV
# UniProt Q8NF50: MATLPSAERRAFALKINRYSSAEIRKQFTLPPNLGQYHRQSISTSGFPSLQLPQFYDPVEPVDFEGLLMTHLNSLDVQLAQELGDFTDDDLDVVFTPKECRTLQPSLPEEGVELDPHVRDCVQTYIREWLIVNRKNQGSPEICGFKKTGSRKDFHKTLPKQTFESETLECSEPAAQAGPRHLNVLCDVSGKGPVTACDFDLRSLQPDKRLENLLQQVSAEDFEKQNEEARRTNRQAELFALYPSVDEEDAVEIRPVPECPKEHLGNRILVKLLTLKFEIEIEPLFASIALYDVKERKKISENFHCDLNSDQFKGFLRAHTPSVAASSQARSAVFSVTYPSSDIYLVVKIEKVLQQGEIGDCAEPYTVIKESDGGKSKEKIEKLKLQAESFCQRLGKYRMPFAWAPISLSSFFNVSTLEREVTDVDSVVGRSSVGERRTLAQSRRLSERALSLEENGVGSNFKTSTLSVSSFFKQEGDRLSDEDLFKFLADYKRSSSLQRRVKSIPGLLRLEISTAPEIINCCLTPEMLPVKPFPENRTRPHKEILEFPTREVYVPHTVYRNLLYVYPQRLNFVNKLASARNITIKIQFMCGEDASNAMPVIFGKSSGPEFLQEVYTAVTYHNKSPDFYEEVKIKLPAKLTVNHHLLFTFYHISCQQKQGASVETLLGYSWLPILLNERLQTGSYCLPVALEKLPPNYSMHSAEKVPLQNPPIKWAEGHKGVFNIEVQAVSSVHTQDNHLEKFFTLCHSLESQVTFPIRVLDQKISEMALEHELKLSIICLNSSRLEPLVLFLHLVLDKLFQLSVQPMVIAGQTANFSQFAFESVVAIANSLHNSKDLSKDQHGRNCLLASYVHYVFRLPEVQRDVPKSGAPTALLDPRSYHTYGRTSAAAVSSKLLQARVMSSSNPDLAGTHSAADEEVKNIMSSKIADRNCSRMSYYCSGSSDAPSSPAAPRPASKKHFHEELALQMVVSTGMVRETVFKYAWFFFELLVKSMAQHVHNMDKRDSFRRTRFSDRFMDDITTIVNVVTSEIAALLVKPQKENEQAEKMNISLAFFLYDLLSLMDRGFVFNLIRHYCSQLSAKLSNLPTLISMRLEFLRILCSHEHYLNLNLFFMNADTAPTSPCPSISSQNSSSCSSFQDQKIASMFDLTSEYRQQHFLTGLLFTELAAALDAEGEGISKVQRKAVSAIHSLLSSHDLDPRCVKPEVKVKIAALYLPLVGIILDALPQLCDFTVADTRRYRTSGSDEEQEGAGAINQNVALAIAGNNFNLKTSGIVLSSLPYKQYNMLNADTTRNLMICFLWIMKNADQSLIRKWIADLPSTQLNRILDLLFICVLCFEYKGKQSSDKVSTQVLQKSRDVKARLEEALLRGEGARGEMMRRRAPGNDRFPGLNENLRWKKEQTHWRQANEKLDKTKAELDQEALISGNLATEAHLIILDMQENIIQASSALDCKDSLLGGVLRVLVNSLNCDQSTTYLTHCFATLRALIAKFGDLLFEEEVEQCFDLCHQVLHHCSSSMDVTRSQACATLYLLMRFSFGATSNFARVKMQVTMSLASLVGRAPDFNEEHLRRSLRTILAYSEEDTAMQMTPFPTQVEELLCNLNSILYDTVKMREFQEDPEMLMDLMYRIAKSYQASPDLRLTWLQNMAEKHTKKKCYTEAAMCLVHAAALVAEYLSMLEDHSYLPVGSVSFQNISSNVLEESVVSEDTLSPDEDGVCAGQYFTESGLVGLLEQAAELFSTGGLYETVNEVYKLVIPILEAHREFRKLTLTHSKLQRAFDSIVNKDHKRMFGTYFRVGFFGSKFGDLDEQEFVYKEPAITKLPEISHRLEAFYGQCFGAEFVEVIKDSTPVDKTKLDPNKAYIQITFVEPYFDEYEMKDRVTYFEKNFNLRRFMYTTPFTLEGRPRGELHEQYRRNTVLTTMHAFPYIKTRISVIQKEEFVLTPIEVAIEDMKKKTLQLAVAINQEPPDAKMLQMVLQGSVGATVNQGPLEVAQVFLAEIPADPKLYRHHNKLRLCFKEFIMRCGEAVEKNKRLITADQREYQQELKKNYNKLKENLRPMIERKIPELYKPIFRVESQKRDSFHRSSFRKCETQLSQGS
# UniProt Q96G46: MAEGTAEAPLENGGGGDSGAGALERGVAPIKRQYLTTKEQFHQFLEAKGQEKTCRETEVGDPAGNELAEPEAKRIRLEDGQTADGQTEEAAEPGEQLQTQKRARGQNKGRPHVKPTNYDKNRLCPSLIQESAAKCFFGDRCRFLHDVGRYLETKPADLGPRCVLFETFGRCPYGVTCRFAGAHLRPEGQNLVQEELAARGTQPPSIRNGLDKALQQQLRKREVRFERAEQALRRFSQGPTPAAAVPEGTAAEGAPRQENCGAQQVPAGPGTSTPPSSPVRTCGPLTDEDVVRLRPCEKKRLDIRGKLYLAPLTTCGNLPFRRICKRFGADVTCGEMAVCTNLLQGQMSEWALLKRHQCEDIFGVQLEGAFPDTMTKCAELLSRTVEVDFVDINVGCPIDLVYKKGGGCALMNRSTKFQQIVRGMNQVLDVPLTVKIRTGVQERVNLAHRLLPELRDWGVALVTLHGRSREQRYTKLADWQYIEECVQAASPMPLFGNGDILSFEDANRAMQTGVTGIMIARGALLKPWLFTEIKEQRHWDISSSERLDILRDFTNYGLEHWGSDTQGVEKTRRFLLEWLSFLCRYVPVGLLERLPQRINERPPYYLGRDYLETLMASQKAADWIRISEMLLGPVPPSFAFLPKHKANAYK
# UniProt P33316: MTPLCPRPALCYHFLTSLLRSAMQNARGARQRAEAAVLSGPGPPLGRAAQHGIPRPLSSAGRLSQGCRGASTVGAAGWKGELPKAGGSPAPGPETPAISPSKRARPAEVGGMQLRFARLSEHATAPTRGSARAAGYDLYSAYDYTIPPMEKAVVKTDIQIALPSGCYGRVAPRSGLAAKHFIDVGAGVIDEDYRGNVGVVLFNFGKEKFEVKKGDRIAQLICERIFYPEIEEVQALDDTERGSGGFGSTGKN
# UniProt Q02487, whole entry: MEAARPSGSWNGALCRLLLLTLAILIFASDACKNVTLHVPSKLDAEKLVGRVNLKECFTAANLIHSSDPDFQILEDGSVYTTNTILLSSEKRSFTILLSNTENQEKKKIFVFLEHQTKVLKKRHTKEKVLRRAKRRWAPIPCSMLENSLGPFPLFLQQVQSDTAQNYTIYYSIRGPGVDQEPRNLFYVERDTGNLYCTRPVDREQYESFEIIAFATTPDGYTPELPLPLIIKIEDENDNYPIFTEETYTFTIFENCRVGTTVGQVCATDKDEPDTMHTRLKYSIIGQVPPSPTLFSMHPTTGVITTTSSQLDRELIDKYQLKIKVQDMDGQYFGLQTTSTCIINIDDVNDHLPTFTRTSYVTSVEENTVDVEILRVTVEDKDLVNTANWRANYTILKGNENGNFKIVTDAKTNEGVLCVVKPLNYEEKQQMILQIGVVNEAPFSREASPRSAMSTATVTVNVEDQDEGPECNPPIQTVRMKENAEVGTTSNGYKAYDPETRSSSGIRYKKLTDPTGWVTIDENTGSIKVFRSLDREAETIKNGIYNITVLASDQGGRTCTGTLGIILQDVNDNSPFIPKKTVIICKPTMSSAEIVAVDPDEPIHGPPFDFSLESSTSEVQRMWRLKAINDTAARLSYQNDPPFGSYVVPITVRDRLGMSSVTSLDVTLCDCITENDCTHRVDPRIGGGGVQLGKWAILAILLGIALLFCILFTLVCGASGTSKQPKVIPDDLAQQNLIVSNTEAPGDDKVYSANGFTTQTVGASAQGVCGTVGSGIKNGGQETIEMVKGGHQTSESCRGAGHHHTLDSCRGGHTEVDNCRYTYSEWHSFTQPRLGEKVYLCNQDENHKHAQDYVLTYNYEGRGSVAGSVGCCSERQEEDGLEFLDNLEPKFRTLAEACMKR
# UniProt Q9P2X0: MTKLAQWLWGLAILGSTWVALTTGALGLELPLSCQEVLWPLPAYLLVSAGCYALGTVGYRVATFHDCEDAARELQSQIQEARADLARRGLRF
# The other results are listed elsewhere or left out.
# Compound: CC1Cc2ccccc2N1C(=O)C1CCCN(C1)C(=O)CCl (mixture of isomers) [TRIM25 ligand 11 (diastereomer mixture)]
# Assay: probe-labelled cysteine peptide fold change vs DMSO (competition) (log2 fold change); higher = less target engagement (more negative = stronger competition)
# Conditions: THP-1, incubation time: 4 h
# 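Note: competitive chemoproteomic profiling in live THP-1 cells with an iodoacetamide desthiobiotin (IA-DTB) probe, comparing probe-labelled peptide intensities in compound-treated cells against DMSO-treated controls.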
Target,probe-labelled cysteine peptide fold change (10 µM),probe-labelled cysteine peptide fold change (50 µM)
DYNC1LI2_O43237_231_RGPLTSGSDEENVALPLGDNVLTHNLGIPVLVVCTK (UniProt O43237),0.071,0.371
DOT1L_Q8TEK3_750_QNTPQYLASPLDQEVVPCTPSHVGRPR (UniProt Q8TEK3),-0.23,-0.271
DPF2_Q92785_53_LPFLDSQTGVAQSNCYIWMEK (UniProt Q92785),-0.0577,-0.19
DYNC1H1_Q14204_3089_CVLNWFGDWSTEALYQVGK (UniProt Q14204),-0.15,-0.0551
DXO_O77932_108_DEEVQERLDHLLCWLLEHR (UniProt O77932),0.0665,0.218
DOCK10_Q96BY6_1112_FDFLQEVCQHEHFIPLCLPIR (UniProt Q96BY6),0.0428,-0.13
DTWD2_Q8NBA8_143_FSEERDPELSTVCR (UniProt Q8NBA8),0.148,0.0336
DNMT1_P26358_353_CIQCGQYLDDPDLK (UniProt P26358),-0.0294,-0.0681
DPYD_Q12882_671_SEDSGADALELNLSCPHGMGER (UniProt Q12882),-0.209,0.0557
DUS1L_Q6P1R4_169_AGCQLLTVHGR (UniProt Q6P1R4),0.0294,-0.233
DOCK8_Q8NF50_121_TLQPSLPEEGVELDPHVRDCVQTYIR (UniProt Q8NF50),-0.199,-0.228
DUS3L_Q96G46_408_GGGCALMNR (UniProt Q96G46),-0.192,-0.169
DTL_Q9NZJ0_544_SSQAEACSESR (UniProt Q9NZJ0),-0.0366,-0.122
DOCK8_Q8NF50_170_QTFESETLECSEPAAQAGPR (UniProt Q8NF50),-0.107,-0.158
DNMT1_P26358_580_HAQFVVEQVESYDEAGDSDEQPIFLTPCMR (UniProt P26358),0.0642,0.604
DOK3_Q7L591_402_ASGPPGNEHLYENLCVLEASPTLHGGEPEPHEGPGSR (UniProt Q7L591),0.108,-0.105
DUT_P33316-2_3_PCSEETPAISPSKR (UniProt P33316),-0.159,-0.178
DPCD_Q9BVM2_164_FSIPDLDRHQLPLDDALLSFAHANCTLIISYQK (UniProt Q9BVM2),0.0459,0.267
DYNC1H1_Q14204_2712_IQFVGACNPPTDPGRKPLSHR (UniProt Q14204),0.0109,0.294

Target,probe-labelled cysteine peptide fold change (10 µM),probe-labelled cysteine peptide fold change (50 µM)
DOCK11_Q5JSL3_1190_DTLYSCAAMPNSASR (UniProt Q5JSL3),-0.166,-0.29
DSC2_Q02487_797_GGHQTSESCR (UniProt Q02487),0.122,-0.209
DPYSL2_Q16555_132+133_SCCDYSLHVDISEWHK (UniProt Q16555),0.17,0.000964
DOCK2_Q92608_1655_QMSIISLASMNSDCSTPSKPTSESFDLELASPK (UniProt Q92608),-0.0892,-0.279
DOCK10_Q96BY6_2164_RGVDQTCTR (UniProt Q96BY6),-0.0636,-0.163
DTX3L_Q8TDB6_219_DSCISPSEPETK (UniProt Q8TDB6),-0.183,-0.184
DYNC1H1_Q14204_3573_WQASSLPADDLCTENAIMLK (UniProt Q14204),-0.0171,-0.286
DTX3L_Q8TDB6_446_QVDLSVHAYASFIDAFQHASCQLMR (UniProt Q8TDB6),0.406,0.224
DOCK10_Q96BY6_936_CHEEQLDHSVQSYIK (UniProt Q96BY6),-0.0686,0.0713
DYNC1H1_Q14204_2594_PLVLCGPPGSGK (UniProt Q14204),0.128,-0.0276
DUS3L_Q96G46_171+177_CPYGVTCR (UniProt Q96G46),0.00831,-0.35
DPM3_Q9P2X0_67_VATFHDCEDAAR (UniProt Q9P2X0),0.149,0.131
DUS3L_Q96G46_396_TVEVDFVDINVGCPIDLVYKK (UniProt Q96G46),-0.169,-0.11
E4F1_Q66K89_63_CQAEFTALEDFVQHK (UniProt Q66K89),0.024,0.103
DUSP3_P51452_124_VLVHCR (UniProt P51452),0.0145,0.0241
DPP8_Q6V1X1_286_YSGYWWCPK (UniProt Q6V1X1),0.162,-0.0125
DST_Q03001_5394_AAQLQEALLHCGR (UniProt Q03001),0.0974,0.0188
DRG2_P55039_198_KGGGISFNSTVTLTQCSEK (UniProt P55039),0.224,0.187
